# Experimental data reported in the supplement of paper PMC8728848.
# This is one part of the list.
# Key:
# Assay in all cases: glycan array binding signal (z-score within array); higher = stronger binding
# Settings in all cases: glycan notation: IUPAC condensed, linker removed
# [1] = target: Gal(b1-4)GalNAc(a1-3)[Fuc(a1-2)]Gal(b1-4)GlcNAc
# Outline: (§1)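 From the Consortium for Functional Glycomics database, 3228 arrays were curated, keeping only those whose protein sequence was available. Binding is given as a within-array Z-score averaged across arrays sharing a protein sequence and across linkers. Negative Z-scores can be read as non-binding.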
# [2] = target: Gal(b1-4)GalNAc(b1-3)[Fuc(a1-2)]Gal(b1-4)GlcNAc
# Outline: as §1
# [3] = target: Gal(b1-4)Glc
# Outline: as §1
# [4] = target: Gal(b1-4)Glc6S
# Outline: as §1
# [5] = target: Gal(b1-4)GlcNAc
# Outline: as §1
# [6] = target: Gal(b1-4)GlcNAc(a1-6)Gal(b1-4)GlcNAc
# Outline: as §1
# [7] = target: Gal(b1-4)GlcNAc(b1-2)Man
# Outline: as §1
# [8] = target: Gal(b1-4)GlcNAc(b1-2)Man(a1-3)Man(b1-4)GlcNAc(b1-4)GlcNAc
# Outline: as §1
# [9] = target: Gal(b1-4)GlcNAc(b1-2)Man(a1-3)[Gal(b1-4)GlcNAc(b1-2)Man(a1-6)]Man(b1-4)GlcNAc(b1-4)GlcNAc
# Outline: as §1
# [10] = target: Gal(b1-4)GlcNAc(b1-2)Man(a1-3)[Gal(b1-4)GlcNAc(b1-2)Man(a1-6)]Man(b1-4)GlcNAc(b1-4)[Fuc(a1-6)]GlcNAc
# Outline: as §1
# [11] = target: Gal(b1-4)GlcNAc(b1-2)Man(a1-3)[Gal(b1-4)GlcNAc(b1-2)][GlcNAc(b1-4)]Man(b1-4)GlcNAc(b1-4)GlcNAc
# Outline: as §1
# [12] = target: Gal(b1-4)GlcNAc(b1-2)Man(a1-3)[GlcNAc(b1-2)Man(a1-6)]Man(b1-4)GlcNAc(b1-4)GlcNAc
# Outline: as §1
# [13] = target: Gal(b1-4)GlcNAc(b1-2)Man(a1-3)[Man(a1-6)]Man(b1-4)GlcNAc(b1-4)GlcNAc
# Outline: as §1
# [14] = target: Gal(b1-4)GlcNAc(b1-2)Man(a1-6)Man(b1-4)GlcNAc(b1-4)GlcNAc
# Outline: as §1
# [15] = target: Gal(b1-4)GlcNAc(b1-2)Man(a1-6)[GlcNAc(b1-2)Man(a1-3)]Man(b1-4)GlcNAc(b1-4)GlcNAc
# Outline: as §1
# [16] = target: Gal(b1-4)GlcNAc(b1-2)Man(a1-6)[Man(a1-3)]Man(b1-4)GlcNAc(b1-4)GlcNAc
# Outline: as §1
# [17] = target: Gal(b1-4)GlcNAc(b1-2)[Gal(b1-4)GlcNAc(b1-4)]Man(a1-3)[Gal(b1-4)GlcNAc(b1-2)Man(a1-6)]Man(b1-4)GlcNAc(b1-4)GlcNAc
# Outline: as §1
# [18] = target: Gal(b1-4)GlcNAc(b1-2)[Gal(b1-4)GlcNAc(b1-4)]Man(a1-3)[Gal(b1-4)GlcNAc(b1-2)[Gal(b1-4)GlcNAc(b1-6)]Man(a1-6)]Man(b1-4)GlcNAc(b1-4)GlcNAc
# Outline: as §1
# [19] = target: Gal(b1-4)GlcNAc(b1-2)[Gal(b1-4)GlcNAc(b1-4)]Man(a1-3)[GlcNAc(b1-4)][Gal(b1-4)GlcNAc(b1-2)Man(a1-6)]Man(b1-4)GlcNAc(b1-4)GlcNAc
# Outline: as §1
# [20] = target: Gal(b1-4)GlcNAc(b1-2)[Gal(b1-4)GlcNAc(b1-4)]Man(a1-3)[GlcNAc(b1-4)][Gal(b1-4)GlcNAc(b1-2)[Gal(b1-4)GlcNAc(b1-6)]Man(a1-6)]Man(b1-4)GlcNAc(b1-4)GlcNAc
# Outline: as §1
# [21] = target: Gal(b1-4)GlcNAc(b1-2)[Gal(b1-4)GlcNAc(b1-6)]Man(a1-6)[Gal(b1-4)GlcNAc(b1-2)Man(a1-3)]Man(b1-4)GlcNAc(b1-4)GlcNAc
# Outline: as §1
# [22] = target: Gal(b1-4)GlcNAc(b1-2)[Gal(b1-4)GlcNAc(b1-6)]Man(a1-6)[GlcNAc(b1-4)][Gal(b1-4)GlcNAc(b1-2)Man(a1-3)]Man(b1-4)GlcNAc(b1-4)GlcNAc
# Outline: as §1
# [23] = target: Gal(b1-4)GlcNAc(b1-3)Gal(b1-3)GlcNAc
# Outline: as §1
binder,measurement,setting,value
"Layilin (Mus musculus), Q8C351 (protein) MQPGAALQAMLLAVLLAKPRDSKGRLLSASDLDPRGGQLVCRGGTRRPCYKVIYFHDAFQRLNFEEAKETCMEDGGQLVSIETEDEQRLIEKFIENLLASDGDFWIGLKRLEEKQSNNTACQDLYAWTDGSTSQFRNWYVDEPSCGSEVCVVMYHQPSAPPGIGGSYMFQWNDDRCNMKNNFICKYHDDKPSTTPSIWPGGEATEPATPLLPEETQKEDTKETFKERREAALNLAYILIPSIPLFLLLVVTSAVCWVWICRRKREQTDPSTKEQHTIWPTPRQENSPNLDVYNVIRKQSEADLAEPRPDLKNISFRVCSGEAMPDDMSCDYENIAVNPSESGFVTLASMESGFVTNDIYEFSPDRMGRSKESGWVENEIYY",glycan array binding signal (z-score),[1],-0.623
same,glycan array binding signal (z-score),[2],0.059
same,glycan array binding signal (z-score),[3],-0.041
same,glycan array binding signal (z-score),[4],-0.075
same,glycan array binding signal (z-score),[5],-0.317
same,glycan array binding signal (z-score),[6],0.234
same,glycan array binding signal (z-score),[7],-0.817
same,glycan array binding signal (z-score),[8],-0.41
same,glycan array binding signal (z-score),[9],-0.504
same,glycan array binding signal (z-score),[10],1.21
same,glycan array binding signal (z-score),[11],-0.483
same,glycan array binding signal (z-score),[12],-1.18
same,glycan array binding signal (z-score),[13],-0.327
same,glycan array binding signal (z-score),[14],-0.753
same,glycan array binding signal (z-score),[15],-0.009
same,glycan array binding signal (z-score),[16],-0.537
same,glycan array binding signal (z-score),[17],0.535
same,glycan array binding signal (z-score),[18],-0.133
same,glycan array binding signal (z-score),[19],-0.669
same,glycan array binding signal (z-score),[20],-0.323
same,glycan array binding signal (z-score),[21],0.083
same,glycan array binding signal (z-score),[22],-0.619
same,glycan array binding signal (z-score),[23],0.562

# Some of the entries so far, tab-delimited:
binder	measurement	setting	value
Layilin (Mus musculus), Q8C351 (protein) MQPGAALQAMLLAVLLAKPRDSKGRLLSASDLDPRGGQLVCRGGTRRPCYKVIYFHDAFQRLNFEEAKETCMEDGGQLVSIETEDEQRLIEKFIENLLASDGDFWIGLKRLEEKQSNNTACQDLYAWTDGSTSQFRNWYVDEPSCGSEVCVVMYHQPSAPPGIGGSYMFQWNDDRCNMKNNFICKYHDDKPSTTPSIWPGGEATEPATPLLPEETQKEDTKETFKERREAALNLAYILIPSIPLFLLLVVTSAVCWVWICRRKREQTDPSTKEQHTIWPTPRQENSPNLDVYNVIRKQSEADLAEPRPDLKNISFRVCSGEAMPDDMSCDYENIAVNPSESGFVTLASMESGFVTNDIYEFSPDRMGRSKESGWVENEIYY	glycan array binding signal (z-score)	[5]	-0.317
same	glycan array binding signal (z-score)	[6]	0.234
